Percent effect of library compounds

Sequences of proteins named here, by UniProt entry; tags and fusion partners are left off.
UniProt P9WNZ1, whole entry: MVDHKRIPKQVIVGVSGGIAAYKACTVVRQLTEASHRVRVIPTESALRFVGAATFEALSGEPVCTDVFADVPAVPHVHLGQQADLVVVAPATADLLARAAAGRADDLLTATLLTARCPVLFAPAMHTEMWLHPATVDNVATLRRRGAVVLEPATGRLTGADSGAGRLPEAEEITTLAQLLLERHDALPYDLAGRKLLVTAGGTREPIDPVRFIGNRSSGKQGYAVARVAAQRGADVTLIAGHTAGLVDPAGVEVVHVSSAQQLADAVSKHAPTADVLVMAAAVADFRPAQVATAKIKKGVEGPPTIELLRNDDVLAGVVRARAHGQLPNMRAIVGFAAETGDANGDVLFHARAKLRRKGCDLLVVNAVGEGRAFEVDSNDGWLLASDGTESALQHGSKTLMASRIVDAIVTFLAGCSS

Measurements from “University of Dundee, Small-Polar-MMV Screening Library” (2021), ChEMBL document CHEMBL3988442.

A: 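Assay of Toxoplasma gondii numbers, read through their beta-galactosidase reporter with a colour substrate. Concentration: 10 µM. The record gives no direction; the compounds picked for IC50 retests had high values, so higher reads as fewer parasites. Of about 67,000 compounds tested this way, about 260 (0.38%) reached 50% or more in at least one test.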
B: 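Enzyme assay of CoaBC with a phosphate dye (Biomol Green) read at 650 nm. Target: Coenzyme A biosynthesis protein CoaBC, Mycobacterium tuberculosis (UniProt P9WNZ1). Concentration: 30 µM. Direction is inferred from only a few compounds that gave an IC50; most scored high, so higher reads as stronger inhibition. Most strong results did not repeat in a second test. About 67,000 compounds were tested under these conditions; 0.06% (about 40) showed 50% or more at least once.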

Each number is a percent effect as filed. The record does not define 0% and 100%; most values in the screen are far below 50% and negative numbers occur (in some assays of this library far below -100). Compounds were drawn at random from those tested, without regard to their results. A dash means the value is not listed here; it may have been measured.

SMILES,A,B
O=C1CC(NCc2ccccn2)CN1CCc1ccc(F)cc1 (centres undefined),4.189,3.247
Cc1ncsc1CN1Cc2cn(C)nc2C(COCC2CC2)C1 (centres undefined),-,-0.7614
COCCCN(C)Cc1nc2c(cnn2C)c(=O)[nH]1,-85.31,0.1669
Fc1ccc([C@@H]2COC[C@H]2NCc2cccc(F)c2)cc1,-,7.975
Cc1ccc(-n2nnc(C(=O)NCC(F)(F)F)c2C2CC2)cc1,11.98,6.769
Cn1ncc(C(=O)N2CCOCC2)c1Cl,29.02,-2.771
CC(=O)N(C)CC(=O)NC1(c2ccc(Br)cc2)CC1,-1.036,2.805
CC(C)c1nc(CCN(C)c2nccc(N3CCCC(O)C3)n2)no1 (centres undefined),-16.2,0
CCc1noc(CN(CC)C(=O)C2CC(=O)N(Cc3ccncc3)C2)n1 (centres undefined),-9.405,-0.3589
CN(C)C(=O)N1CCC2(CCCN(CCOc3ccccc3)C2)C1 (centres undefined),-,3.765
Cc1nc(C)n(CCNS(=O)(=O)NCc2ccccc2)n1,-5.046,4.342
Cn1c(=O)[nH]c(=O)n2c(CC(=O)Nc3ccc(Cl)c(Cl)c3)cnc12,1.279,3.684
O=C(NC[C@H]1OC[C@@H]2CN(Cc3ccco3)CC[C@@H]21)c1cccnc1,-,4.039
CCN1CCC2(CN(C(=O)N(C)C)CC23CCNCC3)C1=O.O=C(O)C(F)(F)F (centres undefined),-29.67,-
CC(C)S(=O)(=O)N1C[C@@H](O)[C@H](N(C)Cc2ccc(F)cc2)C1,-36.64,3.349
COc1cc2nc3n(c(=O)c2cc1OC)CCN(C(=O)C1CC1)CC3,-1.293,-5.583
CCN(C(=O)NCc1cccnc1N(C)C)C(C)c1cccnc1 (centres undefined),-,0.369
Cn1cccc1C(=O)N1C[C@@H]2CCCO[C@@H]2[C@H](N2CCOCC2)C1,-,7.4
Cn1cnc(S(=O)(=O)N2C[C@H](OCC3CC3)[C@H]3OCCC[C@H]32)c1,-,-0.4831
CC(OCC1CC1)C(=O)N1CCCN(c2ncccc2C#N)CC1 (centres undefined),2.323,1.503
CCC(C)NC(=O)CS(=O)(=O)Cc1cc(Cl)ccc1OC (centres undefined),5.192,4.466
CCC(=O)N1CCCN(c2cncc(-n3nc(C)cc3C)n2)CC1,1.018,8.333
c1ccc(NCc2cn3c(n2)CNCC3)nc1,-,1.935
Cc1nc(C2(NCC(=O)NCc3cccs3)CCCCC2)no1,9.448,2.527
O=C(c1cc(Cl)c2c(c1)OCCO2)N1CCCC(n2cncn2)C1 (centres undefined),-1.751,-7.171
CN(C)c1ccc(-c2cc(C(=O)O)cc(S(=O)(=O)NC3CC3)c2)cc1,5.792,4.113
COCc1cc(NCc2cc(F)ccc2F)n2nccc2n1,3.722,-7.889
Fc1cnc(N2CCCC3(CN(Cc4cccs4)CCO3)C2)nc1 (centres undefined),-,2.788
c1cc(CNCCC2CCCO2)ccn1 (centres undefined),6.679,9.13
O=C(Nc1cccc(CN2CCOC2=O)c1)N1CCOCC1,-10.99,2.532
CN(C)c1nccc(C2CN(c3cnccn3)CCO2)n1 (centres undefined),4.174,-19.63
Cc1cc(-c2cnc(N3CCNC(=O)C3)nc2-c2sccc2C)on1,11.11,0.8674
Oc1nnc(-c2ccccc2)c2sc(N3CCCCC3)nc12,-13.22,0.1255
COc1ccc(CN2CCCN(C(=O)C(C)n3ccnc3)CC2)cc1 (centres undefined),16.41,1.901
Cc1cc(NC(=O)C(C)N2CCN(c3nc(C)cs3)CC2)on1 (centres undefined),2.694,1.474
Cc1noc(C)c1CN1CC2(CCCCN2C)CC1=O.O=C(O)C(F)(F)F (centres undefined),1.26,-
Cn1cccc1C(=O)N1C[C@H]2CC[C@@H]1CN(Cc1cscn1)C2,-,0.2554
CCc1nc2n(n1)CC(NCc1noc(-c3ccc(C)cc3)n1)CC2 (centres undefined),-29.44,5.492
CC1=NOC(C(=O)N(C)CCCn2nc(C)cc2C)C1 (centres undefined),6.788,1.229
Cc1ccccc1C1CCCN(C(=O)c2c[nH]c(=O)c(Cl)c2)C1 (centres undefined),-6.943,-1.241
CS(=O)(=O)N[C@@H]1CN(Cc2ccccc2)C[C@@H]2CCCO[C@@H]21,-,5.863
CCOc1ccccc1C(=O)N1CCCC(O)(CN(C)C)C1 (centres undefined),-0.4369,-0.609
CC(C)c1nccn1Cc1cc(C(=O)NCC(C)n2ccnc2)n[nH]1 (centres undefined),-12.01,2.036
CO[C@@H]1CCN(Cc2cnn(C)c2)[C@@H]2CN(Cc3ccco3)C[C@@H]21,-,0.4038
COC(=O)[C@@H]1Cc2ncn(C(C)C)c2CN1S(=O)(=O)Cc1ccccc1,-3.892,6.483
Cc1nc[nH]c1CN1CCn2nc(CN3Cc4ccccc4C3)cc2C1,3.59,9.719
COc1cc(F)ccc1NC(=O)NC(C)C(=O)NC(C)(C)C (centres undefined),3.172,3.071
CO[C@H]1CN(Cc2ccccc2F)C[C@@]12CCCO2,15.83,-2.67
Cc1oc2c(c1C(=O)N1C[C@H](O)[C@]3(CCCO3)C1)CCCC2,5.422,-4.468
CC(C)(CN1CCOCC1)CN1CCC(Cc2cccc(CO)c2)C1 (centres undefined),18.33,-2.273
CCCS(=O)(=O)N1CC[C@H]2O[C@@H](c3nc(C)no3)CC[C@H]21,-,-1.003
O=C(COc1ccccc1)N(Cc1ccncc1)C1CC1,-6.142,2.233

For reference, 3 entries once more:

SMILES,A,B
Cn1ncc(C(=O)N2CCOCC2)c1Cl,29.02,-2.771
CC(C)c1nc(CCN(C)c2nccc(N3CCCC(O)C3)n2)no1 (centres undefined),-16.2,0
Cn1cccc1C(=O)N1C[C@@H]2CCCO[C@@H]2[C@H](N2CCOCC2)C1,-,7.4